{"source": "patent US10912814B2", "about": "“Combination formulation of three antiviral compounds” (priority 2016, dated 2021)", "assay": "Solubility (aqueous, spray-drying solvents)", "assay_type": "physicochemical", "conditions": "37° C.", "text": "In some embodiments, and the Examples presented herein, the tablet formulation includes sofosbuvir having Form 6 and, optionally, a trace amount of Form 7. […] Form 6 of sofosbuvir is the thermodynamically stable form and remains physically stable when suspended in water. Form 7 of Sofosbuvir, while physically stable in water for short periods of time, can be converted to Form 6 with prolonged stirring.\nAs described previously, Form VIII of voxilaprevir is characterized by an X-ray powder diffractogram comprising the following peaks (±0.2°): at 7.8, 8.2, and 20.2°2θ, as determined on a diffractometer using Cu-Kα radiation.\nThe selection of a suitable solvent for the spray drying process was based on (1) the solubility of voxilaprevir EAS, Form II and copovidone in the solvent, (2) the chemical stability of voxilaprevir EAS, Form II in the presence of the solvent, and (3) the impact of the solvent on feed solution properties and particle properties of the resulting solid dispersion. Acetone and dichloromethane were evaluated as solvents for the feed solution because of their low boiling points and the high solubility of voxilaprevir EAS, Form II (>300 mg/mL) in these solvents.", "note": "Some entries share one result that the patent states for a list of compounds."}
{"compound": "CC(C)OC(=O)C(C)N[P@](=O)(OC[C@H]1O[C@@H](n2ccc(=O)[nH]c2=O)[C@](C)(F)[C@@H]1O)Oc1ccccc1", "note": "(stereo in doubt) [sofosbuvir Form 7]", "values": [{"measurement": "aqueous solubility", "result": "≥ 2000", "unit": "µg/mL"}]}
